PubChem BioAssay AID1053208 – Peter MacCallum Cancer Centre – 2014

Screen: 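Synthetic lethal interactions between gene loss and doxorubicin in osteosarcoma cells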 (primary screen)
System: mouse osteosarcoma cells, early-passage culture from an engineered mouse model of fibroblastic bone tumour
Reagents: siRNA pool against mouse genes, 40 nM
Duration: about 120 h (48 h before drug, then 72 h with drug)
Conditions: doxorubicin 100 nM for 72 h, roughly 30-40% inhibitory dose
Detection: 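Luminescent ATP signal taken as viability with or without 100 nM doxorubicin for 72 h; mean of two wells set against non-targeting siRNA and turned into robust z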
Reading the numbers: viability z-score with doxorubicin: higher = more viable cells under doxorubicin; viability z-score without drug: higher = more viable cells with knock-down alone
Call rule: 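Called active if knock-down leaves viability unchanged without drug (z within -2 to 2) but lowers it with doxorubicin (z at or under -2)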
In all, the deposit lists about 17,000 reagents; below is a part drawn at random. 788 of all reagents (4.7%) were called active. 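Calls rest on z-score classes alone; an extra cut-off of viability at most 70% of control was not applied to them.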 Further read-outs or replicates are left out here. Reagent sequences are not shown.

After knock-down of Or4k5, the record shows combined z-score class no change with or without drug; viability z-score with doxorubicin 1.01; viability z-score without drug 1.85; inactive.
After knock-down of BC028528, the screen gave combined z-score class no change with or without drug; viability z-score with doxorubicin -1.46; viability z-score without drug 0.17; inactive.
For Cfc1, the entry reads combined z-score class no change with or without drug; viability z-score with doxorubicin -0.34; viability z-score without drug -1.18; inactive.
Dynlt5 gave combined z-score class no change with or without drug; viability z-score with doxorubicin -0.67; viability z-score without drug 0.84; inactive.
Knock-down of Pcbp2 came out at: combined z-score class no change with or without drug; viability z-score with doxorubicin 1.35; viability z-score without drug 1.18; inactive.
With knock-down of Mrc2, the record shows combined z-score class no change with or without drug; viability z-score with doxorubicin -0.22; viability z-score without drug -0.84; inactive.
Zfp652 scored combined z-score class no change with or without drug; viability z-score with doxorubicin 0; viability z-score without drug 0.17; inactive.
Lrrc75b gave combined z-score class no change with or without drug; viability z-score with doxorubicin 0.45; viability z-score without drug 0.34; inactive.

Just “combined z-score class”, for 2 of the entries above:
Zfp652 = no change with or without drug
Lrrc75b = no change with or without drug

Further results follow.
Npbwr1 gave combined z-score class no change with or without drug; viability z-score with doxorubicin 0; viability z-score without drug 1.18; inactive.
With knock-down of Or2l5, the record shows combined z-score class no change with or without drug; viability z-score with doxorubicin -1.57; viability z-score without drug -1.18; inactive.
Depletion of Tmem59 gave: combined z-score class no change with or without drug; viability z-score with doxorubicin 0.9; viability z-score without drug -0.17; inactive.
Bub3 scored combined z-score class no change with or without drug; viability z-score with doxorubicin -0.45; viability z-score without drug -1.18; inactive.
